# From PubChem BioAssay AID504467 (National Center for Advancing Translational Sciences (NCATS), 2011)
# Screen size: about 330,000 compounds; about 7,700 (2.3%) were called active. The shares of active, inactive and inconclusive entries below differ from those in the screen. Calls follow the shape of the dose curve; as a rule, active = well fitted inhibition curve with a large enough effect; inconclusive = small, poorly fitted or top-dose-only effect, or effect the other way; inactive = flat fitted curve, though single readings scatter. Potencies of inconclusive entries are doubtful fits and often do not repeat.
# Assay: qHTS screen for small molecules that inhibit ELG1-dependent DNA repair in human embryonic kidney (HEK293T) cells expressing luciferase-tagged ELG1; also: nearly all actives have a fitted effect of over 55% in size
# Conditions: HEK293T ELG1-luciferase reporter, luminescence, 16 h, DNA damage induced by 5-fluorouridine; activity change, negative = inhibition: at 46.1 µM (top of the series)
# In short: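 Step one: seed 2,000 cells per well. Step two: pin-transfer compound or DMSO alongside 5-fluorouridine. Step three: incubate 16 hr, 37 °C, 5% CO2. Step four: add ONE-Glo, wait 30 min, read luminescence.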
# % is scaled to controls: 0 for no effect and ±100 for the full control effect; potency is read from the fitted curve at half-maximal effect.
Structure (SMILES),Potency,"activity change, negative = inhibition"
CC1(C)CC(=O)C(C2C3=C(CC(C)(C)CC3=O)Oc3ccccc32)C(=O)C1 (centres undefined),"inconclusive: 20.6 µM [activator, single point]",–
CC(=O)Nc1ccc(S(=O)(=O)NC2=C(N3CCN(Cc4ccccc4)CC3)C(=O)c3ccccc3C2=O)cc1,"inconclusive: 29.1 µM [inhibitor, single point]",–
O=C(CCl)Nc1cc(S(=O)(=O)N2CCCCCC2)ccc1Cl,"inconclusive: 18.4 µM [inhibitor, single point]",–
COc1ccc(-c2c(C)nc(N)nc2-c2ccc(OCc3ccc(C)cc3)cc2O)cc1OC,–,inactive: -3.63%
O=C(Nc1nccs1)c1ccc(COc2ccccc2)o1,"inconclusive: 6.51 µM [activator, partial curve]",–
O=C1C2CC=CCC2C(=O)N1Cc1nnc(-c2ccc(Cl)cc2)o1 (centres undefined),"inconclusive: 20.6 µM [activator, single point]",–
Cc1c(C(=O)NCC(C)C)sc2nc(-c3ccc(F)cc3)cn12,"inconclusive: 5.8 µM [activator, full curve]",–
CCCNC(=O)C1CCC(CNS(=O)(=O)c2ccc3c(c2)CC(C)N3C(C)=O)CC1 (centres undefined),"inconclusive: 18.3 µM [activator, single point]",–
O=C(COC(=O)c1ccc2ncsc2c1)Nc1ccc(Cl)cc1,"inconclusive: 14.6 µM [activator, partial curve, poor fit]",–
COCC(C)n1c(C)cc(C(=O)COC(=O)c2ccc3c(c2)NC(=O)CS3)c1C (centres undefined),"inconclusive: 18.4 µM [inhibitor, partial curve]",–
Cc1ccsc1/C=N/NC(=O)CSCc1ccc(Cl)cc1,–,inactive: -14.4%
O=C(Nc1nncs1)c1cc(-c2ccco2)nc2ccccc12,"inconclusive: 23.1 µM [inhibitor, single point]",–
CCn1c2ccccc2c2cc(NC(=O)C/C(C)=N/NC(=O)c3ccccc3N)ccc21,"inconclusive: 35.5 µM [activator, single point]",–
C=C(C)COc1ccc(-c2n[nH]c(C)c2-c2ccccc2)c(O)c1,"inconclusive: 10.3 µM [inhibitor, partial curve, poor fit]",–
COCCN(Cc1cc2cc(C)ccc2nc1Cl)C(=O)Nc1ccccc1OC,active: 20.6 µM,–
COCCN(C(=O)COC(=O)c1ccc(Cl)nc1)c1c(N)n(Cc2ccccc2)c(=O)[nH]c1=O,–,inactive: 16.8%
COCCC(=O)Nc1ccc2c(c1)CN(C(=O)CSC)CC2,"inconclusive: 5.8 µM [inhibitor, single point]",–
COCCN1C(=O)c2cc(C(=O)Nc3ccc(OC)c(OC)c3)ccc2C1Nc1ccc(OC)c(OC)c1 (centres undefined),–,inactive: -11%
COc1cccc(/C=C/c2nc(C#N)c(NCC(C)C)o2)c1,"inconclusive: 29.1 µM [inhibitor, single point]",–
CC(C)c1cccc(C(C)C)c1NC(=O)CN(C)C1CCS(=O)(=O)C1 (centres undefined),–,inactive: 8.43%
CCOc1nc(NCCO)nc(Nc2ccc([N+](=O)[O-])cc2)n1,active: 10.3 µM,–
Cc1cccc2nc(CSc3ncccc3C(=O)O)cn12,–,inactive: 1.05%
O=C(Nc1cccc(Cl)c1)Nc1ccc2nccnc2c1,"inconclusive: 4.11 µM [activator, partial curve]",–

# A section from the list above, for reference:
Structure (SMILES),Potency,"activity change, negative = inhibition"
CCn1c2ccccc2c2cc(NC(=O)C/C(C)=N/NC(=O)c3ccccc3N)ccc21,"inconclusive: 35.5 µM [activator, single point]",–
C=C(C)COc1ccc(-c2n[nH]c(C)c2-c2ccccc2)c(O)c1,"inconclusive: 10.3 µM [inhibitor, partial curve, poor fit]",–

# (next part)

Structure (SMILES),Potency,"activity change, negative = inhibition"
COc1cccc(CN2CCN(Cc3[nH]c4ccccc4c3C)CC2CCO)c1 (centres undefined),–,inactive: -10.8%
CCc1ccc(NS(=O)(=O)c2ccc(OC)c(C)c2)cc1,–,inactive: -2.07%
O=C(CCCSc1nc2ccccc2[nH]1)N1CCN(c2ccc([N+](=O)[O-])cc2)CC1,"inconclusive: 9.2 µM [inhibitor, partial curve]",–
O=C(COC(=O)Cc1ccsc1)Nc1ccc(Br)cc1F,"inconclusive: 23.1 µM [activator, single point]",–
COc1ccc(/C(C)=N/NC(=O)c2ccncc2)cc1,–,inactive: 13.3%
CC(=O)c1ccc(N2CCN(C(=O)COc3ccc4c(c3)CCC4)CC2)cc1,–,inactive: 3.03%
CCn1cc(C(=O)OCC(=O)c2cc(C)n(-c3ccc(OC(F)F)cc3)c2C)c(=O)c2ccc(C)nc21,"inconclusive: 18.4 µM [inhibitor, single point]",–
O=C(CC(c1cccs1)S(=O)(=O)c1ccccc1)c1ccc(F)cc1 (centres undefined),"inconclusive: 20.6 µM [activator, single point]",–
CCN(CC)S(=O)(=O)c1ccc(NC(=O)C(C)N(c2ccc(OC)cc2)S(C)(=O)=O)cc1 (centres undefined),"inconclusive: 29.1 µM [inhibitor, single point]",–
CC(C)CCSc1nc(N)c(C#N)cc1C#N,"inconclusive: 16.4 µM [inhibitor, partial curve]",–
COc1ccc(Cn2c(SCc3ccc(C)cc3)nc3cc(OC)c(OC)cc3c2=N)cc1Cl,"inconclusive: 29.1 µM [inhibitor, single point]",–
O=C(Nc1ccnn1C1CCN(Cc2cc(Cl)ccc2O)CC1)c1cccnc1,–,inactive: 3.13%
CN(CCO)S(=O)(=O)c1ccc2c(c1)C(=NN)c1cc(S(=O)(=O)N(C)CCO)ccc1-2,–,inactive: -4.8%
Cc1ccc(C)c(NC(=O)c2cnn(-c3ccccc3)c2C)c1,"inconclusive: 2.91 µM [activator, partial curve, poor fit]",–
Cc1cc(C)cc(N/C(N)=N/c2nc(C)cc(C)n2)c1,active: 14.6 µM,–
Cc1ccc2cccc(OC(=O)/C=C\c3ccccc3)c2n1,–,inactive: 0.715%
O=C(CN1CCc2ccccc2C1)Nc1ccc(F)cc1,–,inactive: 2.21%
N#CCCN1CCN(C(=S)c2ccc(-c3ccc(Cl)cc3)o2)CC1,"inconclusive: 29.1 µM [inhibitor, single point]",–
O=C(Nc1ccccc1)c1ccc(NCc2cccnc2)c(S(=O)(=O)N2CCOCC2)c1,"inconclusive: 16.4 µM [inhibitor, single point]",–
O=[N+]([O-])c1ccc(Cl)cc1Sc1nc2ccccc2o1,–,inactive: -0.987%
CS/C(N)=N/N=C/c1ccc([N+](=O)[O-])cc1,"inconclusive: 23.1 µM [activator, partial curve]",–
Cc1[nH]n(-c2ccc(Br)cc2)c(=O)c1C=Nc1ccc(S(=O)(=O)Nc2nccs2)cc1,"inconclusive: 16.4 µM [activator, partial curve]",–
COC(=O)c1c(N)sc(C(C)=O)c1C,"inconclusive: 23.1 µM [activator, partial curve, poor fit]",–

Structure (SMILES),Potency,"activity change, negative = inhibition"
O=C(N/N=C/c1cn(-c2cccs2)nc1-c1ccccc1)c1ccc(O)cc1,"inconclusive: 29.1 µM [inhibitor, single point]",–
O=C(NCCC1=CCCCC1)c1cnc2n(c1=O)CCS2,"inconclusive: 14.6 µM [activator, partial curve]",–
CC(C)n1cnc2c(Nc3cccc(Cl)c3)nc(N(CCO)CCCO)nc21,"inconclusive: 29.1 µM [inhibitor, single point]",–
CCOc1ccc2nc(SCC(=O)N3CCCCCC3)c(C#N)cc2c1,–,inactive: -21.7%
COc1ccc(N2CCN(c3ncnc4c3cnn4-c3ccc(C)cc3C)CC2)cc1,"inconclusive: 4.11 µM [inhibitor, single point]",–
COc1ccc(C(=O)NCCSc2ccc(C)cc2)cc1,"inconclusive: 14.6 µM [activator, partial curve, poor fit]",–
O=C(NCCN1CCOCC1)c1cc(-c2cccs2)on1,"inconclusive: 20.6 µM [activator, partial curve]",–
N#Cc1nc(-c2ccccc2F)oc1NCCc1ccccn1,"inconclusive: 16.4 µM [activator, partial curve, poor fit]",–
CCCCn1c(=O)[nH]c(=O)c2c(C(=O)OCC)cc(-c3ccc(OC(F)F)cc3)nc21,"inconclusive: 4.11 µM [inhibitor, single point]",–
COc1ccccc1CC(=O)NCCCc1ccccc1,"inconclusive: 5.62 µM [activator, partial curve, poor fit]",–
COc1ccccc1N1CCN(C(=O)CCNS(=O)(=O)c2ccc(Br)s2)CC1,–,inactive: -8.52%
Cc1ccc2c(N)c(C(=O)c3ccccc3)sc2n1,"inconclusive: 20.6 µM [activator, partial curve]",–
Cc1cc(/C=N/NC(=O)c2c(Br)cnn2C)c(C)n1-c1cccc(Br)c1,"inconclusive: 23.1 µM [inhibitor, partial curve, poor fit]",–
CCOC(=O)[C@@H]1[C@H]2COc3cc(OC)ccc3[C@H]2N2C(=O)N(c3ccc(C(F)(F)F)cc3)C(=O)[C@]12C,active: 23.1 µM,–
O=C(Nc1ccc2c(c1)nc1n2CCOC1)C1CCCCC1,"inconclusive: 13 µM [activator, partial curve]",–
Cn1ccnc1SCC(=O)c1c(N)n(C)c(=O)n(C)c1=O,"inconclusive: 32.6 µM [activator, partial curve, poor fit]",–
COc1ccccc1NC(=O)c1cc2n(n1)C(C(F)(F)F)CC(c1ccc3c(c1)OCO3)N2 (centres undefined),active: 16.4 µM,–
COc1cccc2sc(Nc3nc(-c4ccncc4)cs3)nc12,"inconclusive: 7.3 µM [inhibitor, partial curve]",–
Cc1nn(-c2ccc(F)cc2)c(Cl)c1/C=C1\C(=O)Nc2ccccc21,"inconclusive: 29.1 µM [inhibitor, single point]",–
CCN1CCN(C(=O)Cn2nc(C)c3sc4ccccc4c3c2=O)CC1,"inconclusive: 25.9 µM [activator, single point]",–
Cc1cc(Cl)c(S(N)(=O)=O)cc1OCC(N)=O,–,inactive: 10.1%
Cc1ccccc1Nc1cc(=O)oc2ccccc12,"inconclusive: 25.9 µM [inhibitor, partial curve]",–
Cc1nc2ccccc2nc(C)c1=NOCc1cccc(F)c1,"inconclusive: 6.51 µM [inhibitor, single point]",–
